Assay results as given in the supplement of paper PMC10849652.
The list shows a part of the results.

Protein sequences, listed by entry. Tags and fused reporters are not part of them. Lines headed by an entry give the natural chain unless they say otherwise; changes in a name come on top.
UniProt Q03014: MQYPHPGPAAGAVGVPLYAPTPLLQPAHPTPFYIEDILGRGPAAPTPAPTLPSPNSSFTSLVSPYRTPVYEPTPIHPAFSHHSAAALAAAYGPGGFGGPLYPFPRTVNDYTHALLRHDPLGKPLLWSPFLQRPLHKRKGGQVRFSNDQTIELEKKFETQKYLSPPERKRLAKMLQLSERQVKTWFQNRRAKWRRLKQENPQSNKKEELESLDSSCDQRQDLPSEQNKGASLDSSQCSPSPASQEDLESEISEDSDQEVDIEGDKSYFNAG
UniProt P52789: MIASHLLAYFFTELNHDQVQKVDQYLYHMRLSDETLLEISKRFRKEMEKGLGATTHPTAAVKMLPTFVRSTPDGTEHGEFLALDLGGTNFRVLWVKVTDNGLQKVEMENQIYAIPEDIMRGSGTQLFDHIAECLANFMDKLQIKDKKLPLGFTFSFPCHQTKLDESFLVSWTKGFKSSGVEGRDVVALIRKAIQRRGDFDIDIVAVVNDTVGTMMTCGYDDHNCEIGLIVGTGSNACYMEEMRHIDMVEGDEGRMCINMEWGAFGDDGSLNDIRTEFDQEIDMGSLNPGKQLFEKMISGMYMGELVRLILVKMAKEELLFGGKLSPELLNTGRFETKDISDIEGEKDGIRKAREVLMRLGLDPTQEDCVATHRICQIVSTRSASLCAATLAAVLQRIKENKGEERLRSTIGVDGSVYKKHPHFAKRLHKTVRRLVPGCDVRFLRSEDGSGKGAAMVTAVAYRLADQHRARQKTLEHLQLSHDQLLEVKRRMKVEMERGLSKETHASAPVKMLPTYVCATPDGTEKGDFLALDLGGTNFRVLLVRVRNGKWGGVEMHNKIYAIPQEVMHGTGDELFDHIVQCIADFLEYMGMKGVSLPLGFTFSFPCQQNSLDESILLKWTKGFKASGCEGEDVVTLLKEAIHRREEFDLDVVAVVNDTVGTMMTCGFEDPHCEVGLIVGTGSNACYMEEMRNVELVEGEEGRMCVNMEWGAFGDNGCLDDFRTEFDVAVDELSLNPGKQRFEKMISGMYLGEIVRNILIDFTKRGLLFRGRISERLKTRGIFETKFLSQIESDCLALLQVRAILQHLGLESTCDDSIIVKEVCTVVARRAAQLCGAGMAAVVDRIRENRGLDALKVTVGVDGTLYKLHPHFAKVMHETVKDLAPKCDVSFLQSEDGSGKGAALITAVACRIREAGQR
UniProt P31942: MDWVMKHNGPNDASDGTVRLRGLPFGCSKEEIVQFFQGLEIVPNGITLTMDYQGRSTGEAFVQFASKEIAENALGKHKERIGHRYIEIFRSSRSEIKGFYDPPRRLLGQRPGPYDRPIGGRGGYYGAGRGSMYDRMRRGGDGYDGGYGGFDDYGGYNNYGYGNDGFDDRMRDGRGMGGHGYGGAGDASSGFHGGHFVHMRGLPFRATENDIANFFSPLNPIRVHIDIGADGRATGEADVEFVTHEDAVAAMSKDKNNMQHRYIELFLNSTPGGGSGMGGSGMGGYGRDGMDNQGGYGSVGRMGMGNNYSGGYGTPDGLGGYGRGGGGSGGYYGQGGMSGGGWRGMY
UniProt Q9BW71: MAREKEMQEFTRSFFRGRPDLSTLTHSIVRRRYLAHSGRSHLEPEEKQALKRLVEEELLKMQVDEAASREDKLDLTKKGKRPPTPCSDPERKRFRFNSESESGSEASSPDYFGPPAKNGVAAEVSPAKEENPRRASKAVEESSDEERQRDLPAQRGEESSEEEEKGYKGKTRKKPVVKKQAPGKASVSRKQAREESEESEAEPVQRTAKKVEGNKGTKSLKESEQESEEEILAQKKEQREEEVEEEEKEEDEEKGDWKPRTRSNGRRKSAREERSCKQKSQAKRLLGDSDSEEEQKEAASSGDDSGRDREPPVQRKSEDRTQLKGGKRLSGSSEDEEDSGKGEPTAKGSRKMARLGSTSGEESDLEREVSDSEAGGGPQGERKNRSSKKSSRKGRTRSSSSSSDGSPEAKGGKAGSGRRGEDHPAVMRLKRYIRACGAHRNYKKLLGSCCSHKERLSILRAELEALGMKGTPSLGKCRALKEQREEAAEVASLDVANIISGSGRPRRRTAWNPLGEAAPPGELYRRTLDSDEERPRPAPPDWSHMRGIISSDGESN
UniProt Q8TDG4: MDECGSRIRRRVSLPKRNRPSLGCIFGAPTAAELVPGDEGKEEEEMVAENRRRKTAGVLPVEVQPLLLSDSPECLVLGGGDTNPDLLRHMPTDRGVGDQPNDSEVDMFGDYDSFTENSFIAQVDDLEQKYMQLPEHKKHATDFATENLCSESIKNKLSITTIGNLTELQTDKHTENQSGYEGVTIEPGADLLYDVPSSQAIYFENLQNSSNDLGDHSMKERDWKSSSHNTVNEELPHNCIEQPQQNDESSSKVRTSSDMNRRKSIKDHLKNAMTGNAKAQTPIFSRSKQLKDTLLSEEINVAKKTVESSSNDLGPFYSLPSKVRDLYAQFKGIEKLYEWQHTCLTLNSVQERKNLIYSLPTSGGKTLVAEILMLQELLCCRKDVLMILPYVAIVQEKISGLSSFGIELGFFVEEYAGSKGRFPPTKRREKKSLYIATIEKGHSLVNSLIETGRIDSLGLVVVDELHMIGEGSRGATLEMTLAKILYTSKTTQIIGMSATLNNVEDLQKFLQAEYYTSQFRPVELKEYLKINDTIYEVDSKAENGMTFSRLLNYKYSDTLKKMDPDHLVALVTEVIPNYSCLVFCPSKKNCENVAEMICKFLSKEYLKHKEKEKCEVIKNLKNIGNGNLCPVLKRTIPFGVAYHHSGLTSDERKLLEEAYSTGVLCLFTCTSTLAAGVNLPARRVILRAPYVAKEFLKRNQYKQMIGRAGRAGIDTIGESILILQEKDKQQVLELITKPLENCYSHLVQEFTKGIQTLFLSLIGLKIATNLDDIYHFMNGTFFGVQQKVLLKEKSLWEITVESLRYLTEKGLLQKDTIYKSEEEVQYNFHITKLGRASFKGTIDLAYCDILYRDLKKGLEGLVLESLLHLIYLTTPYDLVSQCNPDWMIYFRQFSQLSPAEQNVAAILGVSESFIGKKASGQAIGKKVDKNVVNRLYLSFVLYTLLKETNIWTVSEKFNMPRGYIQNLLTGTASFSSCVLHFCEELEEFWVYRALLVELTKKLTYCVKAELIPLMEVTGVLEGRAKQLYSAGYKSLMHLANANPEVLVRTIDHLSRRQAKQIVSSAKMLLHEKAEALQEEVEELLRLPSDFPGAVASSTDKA
UniProt P34932: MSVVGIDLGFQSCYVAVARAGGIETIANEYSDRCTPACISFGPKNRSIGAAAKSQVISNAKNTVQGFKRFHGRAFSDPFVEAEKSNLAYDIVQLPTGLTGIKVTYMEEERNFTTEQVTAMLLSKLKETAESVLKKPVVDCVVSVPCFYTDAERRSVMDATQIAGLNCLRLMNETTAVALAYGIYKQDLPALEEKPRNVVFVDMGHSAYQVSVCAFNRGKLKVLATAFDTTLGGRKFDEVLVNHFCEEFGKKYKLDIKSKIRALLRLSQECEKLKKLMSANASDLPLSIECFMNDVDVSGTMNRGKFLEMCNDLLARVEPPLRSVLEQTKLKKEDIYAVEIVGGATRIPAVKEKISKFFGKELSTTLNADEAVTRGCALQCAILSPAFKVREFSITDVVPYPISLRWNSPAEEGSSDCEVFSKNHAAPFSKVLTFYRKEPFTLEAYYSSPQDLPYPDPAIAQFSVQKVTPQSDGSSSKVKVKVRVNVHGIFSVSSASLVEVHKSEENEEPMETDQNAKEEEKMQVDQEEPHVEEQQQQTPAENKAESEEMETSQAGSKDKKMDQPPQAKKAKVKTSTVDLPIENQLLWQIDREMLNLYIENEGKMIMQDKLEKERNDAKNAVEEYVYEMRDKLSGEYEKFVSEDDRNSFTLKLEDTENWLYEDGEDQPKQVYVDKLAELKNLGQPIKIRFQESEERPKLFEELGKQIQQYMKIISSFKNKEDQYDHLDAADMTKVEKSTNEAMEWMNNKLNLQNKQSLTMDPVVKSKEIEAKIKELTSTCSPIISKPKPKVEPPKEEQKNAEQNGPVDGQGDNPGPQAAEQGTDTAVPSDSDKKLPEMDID
UniProt O75146: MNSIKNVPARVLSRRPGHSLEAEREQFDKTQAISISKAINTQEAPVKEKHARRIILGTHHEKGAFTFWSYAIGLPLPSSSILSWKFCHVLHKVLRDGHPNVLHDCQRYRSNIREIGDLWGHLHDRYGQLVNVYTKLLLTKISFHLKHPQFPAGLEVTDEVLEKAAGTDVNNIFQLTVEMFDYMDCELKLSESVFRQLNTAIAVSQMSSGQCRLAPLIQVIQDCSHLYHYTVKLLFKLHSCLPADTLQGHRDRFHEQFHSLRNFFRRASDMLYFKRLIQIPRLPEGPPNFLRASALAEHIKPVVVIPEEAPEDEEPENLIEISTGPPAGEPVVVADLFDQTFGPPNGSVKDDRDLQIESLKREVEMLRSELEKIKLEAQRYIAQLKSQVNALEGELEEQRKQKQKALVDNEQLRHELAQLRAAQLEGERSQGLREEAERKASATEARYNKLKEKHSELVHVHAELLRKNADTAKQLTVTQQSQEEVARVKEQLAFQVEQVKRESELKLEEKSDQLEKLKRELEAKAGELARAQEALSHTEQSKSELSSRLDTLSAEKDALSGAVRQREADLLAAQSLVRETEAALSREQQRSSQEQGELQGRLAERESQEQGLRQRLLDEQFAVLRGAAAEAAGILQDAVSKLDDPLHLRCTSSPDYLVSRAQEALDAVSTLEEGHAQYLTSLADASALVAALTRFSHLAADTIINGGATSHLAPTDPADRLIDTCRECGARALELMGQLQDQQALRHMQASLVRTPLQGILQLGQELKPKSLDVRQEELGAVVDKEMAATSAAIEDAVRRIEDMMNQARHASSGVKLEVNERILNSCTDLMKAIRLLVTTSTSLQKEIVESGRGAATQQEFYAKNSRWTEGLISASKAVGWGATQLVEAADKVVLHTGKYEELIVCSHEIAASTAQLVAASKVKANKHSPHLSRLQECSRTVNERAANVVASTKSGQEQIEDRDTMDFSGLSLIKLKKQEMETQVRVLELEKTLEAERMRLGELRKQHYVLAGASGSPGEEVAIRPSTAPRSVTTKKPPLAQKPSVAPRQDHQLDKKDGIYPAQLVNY
UniProt Q9NQE9: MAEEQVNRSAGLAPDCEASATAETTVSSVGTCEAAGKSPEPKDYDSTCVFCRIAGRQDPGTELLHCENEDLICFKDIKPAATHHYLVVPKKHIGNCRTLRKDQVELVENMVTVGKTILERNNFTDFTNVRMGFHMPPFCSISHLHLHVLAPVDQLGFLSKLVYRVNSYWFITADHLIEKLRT
UniProt P49773: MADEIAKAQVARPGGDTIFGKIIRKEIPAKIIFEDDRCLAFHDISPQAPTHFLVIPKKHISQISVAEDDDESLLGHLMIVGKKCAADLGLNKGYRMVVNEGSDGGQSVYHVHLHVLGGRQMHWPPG
UniProt Q58FF6, whole entry, looked up: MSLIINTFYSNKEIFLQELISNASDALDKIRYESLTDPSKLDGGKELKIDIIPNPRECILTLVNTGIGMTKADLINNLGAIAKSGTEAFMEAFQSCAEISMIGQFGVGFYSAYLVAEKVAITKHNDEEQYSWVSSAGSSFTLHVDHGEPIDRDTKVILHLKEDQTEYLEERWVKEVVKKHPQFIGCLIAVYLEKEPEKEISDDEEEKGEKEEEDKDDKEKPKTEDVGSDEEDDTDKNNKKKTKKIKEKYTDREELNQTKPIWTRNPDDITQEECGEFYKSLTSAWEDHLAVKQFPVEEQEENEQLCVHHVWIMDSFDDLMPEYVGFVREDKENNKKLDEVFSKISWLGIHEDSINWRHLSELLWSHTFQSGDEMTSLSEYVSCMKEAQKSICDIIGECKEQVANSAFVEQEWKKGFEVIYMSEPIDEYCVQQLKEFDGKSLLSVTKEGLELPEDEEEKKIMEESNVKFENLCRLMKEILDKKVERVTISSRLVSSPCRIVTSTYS
UniProt O43390: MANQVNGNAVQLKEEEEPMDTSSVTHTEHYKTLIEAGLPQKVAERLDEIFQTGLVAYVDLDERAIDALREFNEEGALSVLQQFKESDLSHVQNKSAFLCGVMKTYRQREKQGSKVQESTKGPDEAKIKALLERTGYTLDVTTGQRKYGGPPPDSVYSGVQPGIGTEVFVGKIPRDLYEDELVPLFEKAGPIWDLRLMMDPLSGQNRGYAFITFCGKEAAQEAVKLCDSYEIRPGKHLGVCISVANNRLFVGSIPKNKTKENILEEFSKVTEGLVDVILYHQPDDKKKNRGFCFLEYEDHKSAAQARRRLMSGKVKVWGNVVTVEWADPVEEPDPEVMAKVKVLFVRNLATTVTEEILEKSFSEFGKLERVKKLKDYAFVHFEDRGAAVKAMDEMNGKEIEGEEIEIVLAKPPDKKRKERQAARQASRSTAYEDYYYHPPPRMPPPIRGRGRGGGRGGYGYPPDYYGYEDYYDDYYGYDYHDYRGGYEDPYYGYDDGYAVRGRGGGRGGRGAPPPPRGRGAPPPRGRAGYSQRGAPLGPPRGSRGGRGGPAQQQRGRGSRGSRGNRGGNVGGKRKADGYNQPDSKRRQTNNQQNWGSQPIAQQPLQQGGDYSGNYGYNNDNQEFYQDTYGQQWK

Columns and labels:
Test in all cases: log2 fold change, soluble protein after heating vs DMSO (PISA); higher = thermal stabilisation; K562 lysate, 10 uM; active = over 0.2 and 3.5 SD of the protein, either way, in both replicates (recomputed)
lapatinib = compound: CS(=O)(=O)CCNCc1ccc(-c2ccc3ncnc(Nc4ccc(OCc5cccc(F)c5)c(Cl)c4)c3c2)o1 [lapatinib]
Outline: (§1)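 Following dounce homogenisation of K562 pellets in PBS pH 7.4 with 1 mM MgCl2, crude extract at 1 mg/mL protein was incubated for 30 min with 10 μM compound. Aliquots were then heated for 3 min over 48°C-58°C and pooled, NP-40 was added to 0.5% at 4°C, and soluble protein was recovered as the supernatant at 21,000xg for 90 min. Channel-sum-equalised TMTpro 16plex LC-MS/MS quantified this protein. Each value, from duplicates, is a log-two fold change in thermal stability relative to solvent controls.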

pictilisib = compound: CS(=O)(=O)N1CCN(Cc2cc3nc(-c4cccc5[nH]ncc45)nc(N4CCOCC4)c3s2)CC1 [pictilisib]
Outline: as §1

crizotinib = compound: C[C@@H](Oc1cc(-c2cnn(C3CCNCC3)c2)cnc1N)c1c(Cl)ccc(F)c1Cl [crizotinib]
Outline: as §1

[1] = compound: C[C@H](C1=CC=C(C=C1)C(=O)NC2=C3C=CNC3=NC=C2)N
Outline: as §1

duvelisib = compound: C[C@H](Nc1ncnc2nc[nH]c12)c1cc2cccc(Cl)c2c(=O)n1-c1ccccc1 [duvelisib]
Outline: as §1

gandotinib = compound: Cc1cc(Nc2cc(CN3CCOCC3)c3nc(C)c(Cc4ccc(Cl)cc4F)n3n2)n[nH]1 [gandotinib]
Outline: as §1

tozasertib = compound: Cc1cc(Nc2cc(N3CCN(C)CC3)nc(Sc3ccc(NC(=O)C4CC4)cc3)n2)n[nH]1 [tozasertib]
Outline: as §1

doramapimod = compound: Cc1ccc(-n2nc(C(C)(C)C)cc2NC(=O)Nc2ccc(OCCN3CCOCC3)c3ccccc23)cc1 [doramapimod]
Outline: as §1

bafetinib = compound: Cc1ccc(NC(=O)c2ccc(CN3CC[C@H](N(C)C)C3)c(C(F)(F)F)c2)cc1Nc1nccc(-c2cncnc2)n1 [bafetinib]
Outline: as §1

[2] = compound: Cc1cccc(CC(=O)N2CCc3c2ccc(-c2cn(C)c4ncnc(N)c24)c3F)n1
Outline: as §1

nilotinib = compound: Cc1cn(-c2cc(NC(=O)c3ccc(C)c(Nc4nccc(-c5cccnc5)n4)c3)cc(C(F)(F)F)c2)cn1 [nilotinib]
Outline: as §1

[3] = compound: Cc1nc(Nc2n[nH]c3c2CN(C(=O)N[C@H](CN(C)C)c2ccccc2)C3(C)C)c2sccc2n1
Outline: as §1

dasatinib = compound: Cc1nc(Nc2ncc(C(=O)Nc3c(C)cccc3Cl)s2)cc(N2CCN(CCO)CC2)n1 [dasatinib]
Outline: as §1

[4] = compound: Cc1ncc(-c2ccnc(Nc3ccc(S(C)(=O)=O)cc3)n2)n1C(C)C
Outline: as §1

[5] = compound: Cn1cc(-c2ccc3c(c2)CCN3C(=O)Cc2cccc(C(F)(F)F)c2)c2c(N)ncnc21
Outline: as §1

quisinostat = compound: Cn1cc(CNCC2CCN(c3ncc(C(=O)NO)cn3)CC2)c2ccccc21 [quisinostat]
Outline: as §1

tipifarnib = compound: Cn1cncc1[C@@](N)(c1ccc(Cl)cc1)c1ccc2c(c1)c(-c1cccc(Cl)c1)cc(=O)n2C [tipifarnib]
Outline: as §1

[6] = compound: NC(=O)Nc1cc(-c2cccc(F)c2)sc1C(=O)N[C@H]1CCCNC1
Outline: as §1

[7] = compound: NC(=O)c1cnc(N[C@@H]2CCCC[C@@H]2N)nc1Nc1cccc(-n2nccn2)c1
Outline: as §1

[8] = compound: NC1(c2ccc(-c3nc4ccn5c(=O)[nH]nc5c4cc3-c3ccccc3)cc2)CCC1
Outline: as §1

Measured: log2 fold change

HHEX (UniProt Q03014)
inactive: lapatinib -0.083 | pictilisib 0.053 | crizotinib 0.111 | [1] 0.031 | duvelisib -0.06 | gandotinib 0.065 | tozasertib -0.223 | doramapimod 0.137 | bafetinib -0.132 | [2] -0.035 | nilotinib -0.129 | [3] 0.006 | dasatinib -0.071 | [4] -0.018 | [5] -0.043 | quisinostat -0.047 | tipifarnib -0.172 | [6] 0.051 | [7] 0.034 | [8] 0.04

HK2 (UniProt P52789)
inactive: lapatinib -0.003 | pictilisib -0.017 | crizotinib -0.069 | [1] 0.043 | duvelisib 0.007 | gandotinib -0.056 | tozasertib 0.007 | doramapimod 0.05 | bafetinib -0.076 | [2] 0.004 | nilotinib 0.065 | [3] -0.003 | dasatinib -0.052 | [4] 0 | [5] 0.033 | quisinostat -0.079 | tipifarnib -0.01 | [6] 0.048 | [7] 0.035 | [8] -0.031

HLTF (UniProt Q14527)
inactive: lapatinib 0.045 | pictilisib 0.061 | crizotinib -0.019 | [1] -0.063 | duvelisib -0.05 | gandotinib -0.021 | tozasertib 0.004 | doramapimod -0.007 | bafetinib -0.087 | [2] 0.035 | nilotinib -0.039 | [3] 0.004 | dasatinib -0.041 | [4] -0.051 | [5] 0.05 | quisinostat 0.021 | tipifarnib -0.148 | [6] 0.102 | [7] 0.055 | [8] -0.085

HNRNPH3 (UniProt P31942)
inactive: lapatinib -0.007 | pictilisib 0.04 | crizotinib -0.141 | [1] -0.038 | duvelisib -0.045 | gandotinib -0.016 | tozasertib -0.002 | doramapimod 0.035 | bafetinib -0.074 | [2] 0.022 | nilotinib -0.218 | [3] 0.052 | dasatinib -0.024 | [4] 0.072 | [5] 0.043 | quisinostat -0.154 | tipifarnib -0.003 | [6] 0.067 | [7] 0.019 | [8] -0.002

HIRIP3 (UniProt Q9BW71)
inactive: lapatinib 0.001 | pictilisib 0.032 | crizotinib -0.027 | [1] 0.04 | duvelisib -0.044 | gandotinib 0.029 | tozasertib 0.016 | doramapimod 0.039 | bafetinib 0.033 | [2] -0.044 | nilotinib -0.018 | [3] -0.014 | dasatinib 0.009 | [4] -0.028 | [5] -0.022 | quisinostat -0.018 | tipifarnib 0.014 | [6] -0.01 | [7] -0.024 | [8] -0.004

HELQ (UniProt Q8TDG4)
inactive: lapatinib 0.002 | pictilisib -0.009 | crizotinib -0.011 | [1] -0.014 | duvelisib 0.025 | gandotinib 0.012 | tozasertib -0.01 | doramapimod 0.042 | bafetinib -0.109 | [2] -0.033 | dasatinib 0.021 | [4] 0.051 | [5] -0.028 | quisinostat -0.024 | tipifarnib 0.033 | [6] -0.013 | [7] 0.122 | [8] 0.009
active: nilotinib -0.486 | [3] -0.433

HSDL2 (UniProt Q6YN16)
inactive: lapatinib -0.002 | pictilisib 0.003 | crizotinib -0.006 | [1] -0.089 | duvelisib -0.028 | gandotinib 0.073 | tozasertib 0 | doramapimod -0.011 | bafetinib -0.027 | [2] 0.097 | nilotinib 0 | [3] 0.007 | dasatinib -0.02 | [4] 0.019 | [5] 0.013 | quisinostat -0.012 | tipifarnib 0.005 | [6] 0.033 | [7] 0.004 | [8] -0.021

HSPA4 (UniProt P34932)
inactive: lapatinib 0.011 | pictilisib -0.003 | crizotinib 0.013 | [1] -0.018 | duvelisib 0.001 | gandotinib 0 | tozasertib 0.006 | doramapimod -0.006 | bafetinib 0.016 | [2] 0.007 | nilotinib -0.013 | [3] 0.017 | dasatinib 0.012 | [4] 0.006 | [5] 0.016 | quisinostat 0.034 | tipifarnib 0.026 | [6] -0.012 | [7] 0.001 | [8] 0.012

HM13 (UniProt Q8TCT9)
inactive: lapatinib 0.031 | pictilisib 0.025 | crizotinib 0.043 | [1] 0.158 | duvelisib -0.121 | gandotinib 0.11 | tozasertib -0.17 | doramapimod -0.078 | bafetinib 0.004 | [2] -0.065 | nilotinib 0.107 | [3] 0.015 | dasatinib -0.012 | [4] -0.071 | [5] -0.003 | quisinostat -0.031 | tipifarnib -0.116 | [6] -0.026 | [7] -0.079 | [8] 0

HIP1R (UniProt O75146)
inactive: lapatinib -0.022 | pictilisib -0.032 | crizotinib -0.028 | [1] 0.047 | duvelisib -0.009 | gandotinib -0.016 | tozasertib 0.005 | doramapimod -0.04 | bafetinib -0.046 | [2] -0.006 | nilotinib -0.033 | [3] 0.007 | dasatinib -0.036 | [4] 0.011 | [5] -0.035 | quisinostat -0.031 | tipifarnib 0.001 | [6] 0.007 | [7] 0.013 | [8] -0.018

HINT3 (UniProt Q9NQE9)
inactive: lapatinib 0.033 | pictilisib 0.009 | crizotinib -0.045 | [1] 0.007 | duvelisib 0.017 | gandotinib -0.042 | tozasertib 0.084 | doramapimod -0.005 | bafetinib -0.027 | [2] -0.008 | nilotinib 0.095 | [3] 0.038 | dasatinib -0.028 | [4] -0.019 | [5] -0.022 | quisinostat -0.091 | tipifarnib -0.015 | [6] 0.028 | [7] 0.003 | [8] 0.013

HNRNPD isoform 2 (UniProt Q14103)
active: [1] 0.559
inactive: lapatinib 0.047 | pictilisib 0.043 | crizotinib 0.034 | duvelisib 0.015 | gandotinib -0.085 | tozasertib 0.004 | doramapimod -0.023 | bafetinib 0.095 | [2] -0.108 | nilotinib -0.047 | [3] 0 | dasatinib -0.02 | [4] 0.009 | [5] -0.05 | quisinostat 0.139 | tipifarnib 0.029 | [6] -0.025 | [7] 0.015 | [8] -0.008

HINT1 (UniProt P49773)
inactive: lapatinib 0.109 | pictilisib 0.028 | crizotinib 0.035 | [1] 0.096 | duvelisib 0.05 | gandotinib -0.064 | tozasertib 0.059 | doramapimod 0.057 | bafetinib 0.022 | [2] -0.035 | nilotinib 0.019 | [3] 0.038 | dasatinib -0.002 | [4] 0.031 | [5] -0.016 | quisinostat 0.092 | tipifarnib 0.011 | [6] -0.091 | [7] -0.031 | [8] 0.056

Quoted from the results shown (2 entries):
HINT3 (UniProt Q9NQE9)
inactive: lapatinib 0.033 | pictilisib 0.009 | crizotinib -0.045 | [1] 0.007 | duvelisib 0.017 | gandotinib -0.042 | tozasertib 0.084 | doramapimod -0.005 | bafetinib -0.027 | [2] -0.008 | nilotinib 0.095 | [3] 0.038 | dasatinib -0.028 | [4] -0.019 | [5] -0.022 | quisinostat -0.091 | tipifarnib -0.015 | [6] 0.028 | [7] 0.003 | [8] 0.013

HNRNPD isoform 2 (UniProt Q14103)
active: [1] 0.559
inactive: lapatinib 0.047 | pictilisib 0.043 | crizotinib 0.034 | duvelisib 0.015 | gandotinib -0.085 | tozasertib 0.004 | doramapimod -0.023 | bafetinib 0.095 | [2] -0.108 | nilotinib -0.047 | [3] 0 | dasatinib -0.02 | [4] 0.009 | [5] -0.05 | quisinostat 0.139 | tipifarnib 0.029 | [6] -0.025 | [7] 0.015 | [8] -0.008

Following part

HSP90AB4P (UniProt Q58FF6)
inactive: lapatinib -0.106 | pictilisib -0.322 | crizotinib -0.039 | [1] -0.382 | duvelisib 0.006 | gandotinib -0.05 | tozasertib 0.006 | doramapimod 0.112 | bafetinib -0.531 | [2] 0.32 | nilotinib -0.1 | [3] -0.059 | dasatinib -0.098 | [4] 0.119 | [5] 0.072 | quisinostat -0.153 | tipifarnib 0.116 | [6] 0.038 | [7] 0.034 | [8] -0.063

HNRNPA0 (UniProt Q13151)
inactive: lapatinib 0.017 | pictilisib 0.022 | crizotinib -0.032 | [1] 0.003 | duvelisib -0.074 | gandotinib -0.027 | tozasertib -0.028 | doramapimod -0.015 | bafetinib -0.023 | [2] -0.059 | nilotinib -0.08 | [3] -0.024 | dasatinib -0.062 | [4] -0.017 | [5] 0.011 | quisinostat -0.038 | tipifarnib 0.023 | [6] 0.047 | [7] 0.036 | [8] 0.012

HNRNPR isoform 2 (UniProt O43390)
inactive: lapatinib 0.003 | pictilisib -0.001 | crizotinib -0.014 | [1] 0.008 | duvelisib 0.001 | gandotinib -0.048 | tozasertib 0.018 | doramapimod 0.001 | bafetinib 0.012 | [2] -0.021 | nilotinib -0.031 | [3] 0.002 | dasatinib -0.003 | [4] -0.017 | [5] -0.002 | quisinostat 0.002 | tipifarnib 0.02 | [6] -0.028 | [7] 0.011 | [8] -0.006
